# The whole screen tested about 370,000 compounds, of which about 100 (0.027%) were called active. The inconclusive results got no clear call from the source; some entries with a clear call stand among them for comparison. Calls come from the whole dose curve; as a rule, active = well fitted inhibition curve with a large enough effect in the polarisation, with a control signal flat; inconclusive = small, poorly fitted or top-dose-only effect, or effect the other way, or a change in a side signal; inactive = no such curve, though single readings can be large or run the other way; the % refers to the polarisation. A potency beside an inconclusive call is a rough fit, not a confirmed value. A note “side channel” means that the fit belongs to a control or component signal, not to the main read-out.
# Chains of the proteins cited; added tags and fusions are not shown. Lines headed by an entry give the natural chain unless they say otherwise; changes in a name come on top.
# UniProt P11308: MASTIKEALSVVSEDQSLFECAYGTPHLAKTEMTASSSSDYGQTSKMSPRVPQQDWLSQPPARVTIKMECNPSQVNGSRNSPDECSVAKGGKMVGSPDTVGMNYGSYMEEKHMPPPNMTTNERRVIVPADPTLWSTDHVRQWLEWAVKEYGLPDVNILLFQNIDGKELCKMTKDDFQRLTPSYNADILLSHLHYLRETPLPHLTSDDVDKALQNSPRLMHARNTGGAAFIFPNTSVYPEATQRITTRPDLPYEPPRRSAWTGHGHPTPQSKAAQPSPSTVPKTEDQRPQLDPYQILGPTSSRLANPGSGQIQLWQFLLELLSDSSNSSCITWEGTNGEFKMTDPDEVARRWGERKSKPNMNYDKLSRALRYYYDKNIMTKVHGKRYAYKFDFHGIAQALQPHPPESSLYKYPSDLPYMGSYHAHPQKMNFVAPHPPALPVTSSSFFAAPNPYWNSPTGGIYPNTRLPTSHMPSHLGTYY
# Target: Transcriptional regulator ERG (Homo sapiens) (UniProt P11308)
# Experiment: qHTS for Small Molecule Inhibitors of the ERG Ets/DNA interaction
# Conditions: fluorescence polarization, His-ERG Ets domain / labelled DNA; series mostly up to 76.9 µM
# Procedure, shortened: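 His-tagged ERG Ets domain (1 uM in the protein solution; 300mM KCl, 50mM Tris-HCl, 1mM EDTA, 1mM DTT, pH 7.5) received compound, then a probe mix of 5 nM fluorescein-DNA and 100nM Texas-615-DNA. Fluorescence polarization was read for both dyes.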
# Potency is the fitted concentration of half-maximal effect.
row,Structure (SMILES),Potency
1,CCCc1cc(SCC(=O)Nc2c(C)n(C)n(-c3ccccc3)c2=O)n2c(nc3ccccc32)c1C#N,"inconclusive: 79.4 µM [inhibitor, single point]"
2,COC(=O)CN1C(=O)N/C(=C/c2ccc(OC)c(C)c2OC)C1=O,"inconclusive: 35.5 µM [quencher, side channel, partial curve, poor fit]"
3,Cc1cccc(C)c1-n1cccc1/C=C1/C(=N)N2C(=NC1=O)SN=C2S(C)(=O)=O,"inconclusive: 56.2 µM [inhibitor, partial curve, poor fit]"
4,CCOC(=O)C1CCCN(c2c(C(=O)c3ccccc3)cnc3ccc(F)cc23)C1 (configuration not stated),inactive
5,CCN(CC)C(=O)Cn1cc(C(=O)C(=O)NCCCN2CCOCC2)c2ccccc21,"inconclusive: 28.2 µM [inhibitor, partial curve]"
6,CC(C)OCCCNC(=O)c1ccccc1NC(=O)C1=CSCCO1,"inconclusive: 7.94 µM [inhibitor, full curve, poor fit]"
7,CC(N)C12CC3CC(CC(C3)C1)C2 (configuration not stated),"inconclusive: 0.794 µM [inhibitor, full curve, poor fit]"
8,COc1cc2[nH]c3c(N4CCN(c5ccccn5)CC4)ncnc3c2cc1OC,"inconclusive: 35.5 µM [quencher, side channel, partial curve, poor fit]"
9,C/C(=N\NC(=O)c1ccoc1C)c1ccccc1,inactive
10,O=C(/C=C/c1ccco1)Nc1cccc2cccnc12,inactive
11,CCOC(=O)c1cc2c(nc1N)CC(C)(CC)OC2 (configuration not stated),"inconclusive: 39.8 µM [quencher, side channel, single point]"
12,COc1ccc(C(=O)N[C@H](C(=O)N2CCN(c3ccccc3F)CC2)C(C)C)cc1,"inconclusive: 20 µM [inhibitor, partial curve, poor fit]"
13,CN(C)C(CNC(=O)Cc1ccc([N+](=O)[O-])cc1)c1ccccc1 (configuration not stated),"inconclusive: 50.1 µM [inhibitor, single point]"
14,CCOc1ccc(-n2c(C)cc(/C=C3/C(=N)N4C(=NC3=O)SN=C4S(C)(=O)=O)c2C)cc1,inactive
15,COc1ccc(C(=O)NC(=S)Nc2cc3oc4ccccc4c3cc2OC)cc1,inactive
16,CC(C)Oc1ccc(CNCC2(O)CCOC(C)(C)C2)cc1 (configuration not stated),"inconclusive: 39.8 µM [quencher, side channel, partial curve, poor fit]"
17,Cc1cc2c(cn1)C(CCC#N)(CCC#N)c1ccccc1-2,"inconclusive: 35.5 µM [inhibitor, single point]"
18,CCN1C(=O)[C@H]2[C@@H](c3ccc(-c4ccc5c(c4)OCO5)cc3)N[C@@](Cc3ccccc3)(C(=O)OC)[C@H]2C1=O,inactive
19,COC(=O)Cc1cc(=O)n2[nH]cnc2n1,inactive
20,COc1cc(O)cc2cc3c(c(O)c12)C(=O)CC(C)(O)O3 (configuration not stated),inactive
21,COC(=O)c1ccccc1NC(=O)c1nn(-c2ccc(OC)cc2)c(=O)c2c1c1ccccc1n2C,"inconclusive: 44.7 µM [quencher, side channel, partial curve, poor fit]"

# A draw from above in order of length of the SMILES, rising.
row,Structure (SMILES),Potency
16,CC(C)Oc1ccc(CNCC2(O)CCOC(C)(C)C2)cc1 (configuration not stated),"inconclusive: 39.8 µM [quencher, side channel, partial curve, poor fit]"
17,Cc1cc2c(cn1)C(CCC#N)(CCC#N)c1ccccc1-2,"inconclusive: 35.5 µM [inhibitor, single point]"
6,CC(C)OCCCNC(=O)c1ccccc1NC(=O)C1=CSCCO1,"inconclusive: 7.94 µM [inhibitor, full curve, poor fit]"

# The results go on.

row,Structure (SMILES),Potency
1,CCC1OC2(C)OC(=N)C1(C#N)C(C#N)(C#N)C2c1ccccc1 (configuration not stated),"inconclusive: 39.8 µM [fluorescent, side channel, single point]"
2,CS(=O)(=O)N(Cc1ccccc1)c1ccc(C(=O)Nc2ccc(Cl)cc2)cc1,"inconclusive: 6.31 µM [inhibitor, partial curve, poor fit]"
3,CCCCn1c(N)c(N(CC(C)C)C(=O)c2ccc(S(=O)(=O)N(CC)c3ccccc3)cc2)c(=O)[nH]c1=O,"inconclusive: 0.794 µM [inhibitor, full curve, poor fit]"
4,Cc1cc(Cl)ccc1NC(=O)CCCn1nc(C)c2c(C)n(-c3ccccc3)nc2c1=O,inactive
5,COc1ccc(OC)c(/C=N/Nc2nc(C)cc(=O)[nH]2)c1,"inconclusive: 50.1 µM [inhibitor, single point]"
6,CC[N+]1=C(C)C(C)(C)c2cc(C)ccc21,inactive
7,COc1cc(C2Nc3ccccc3NC3=C2C(=O)CC(c2ccc(OC)c(OC)c2)C3)ccc1O (configuration not stated),"inconclusive: 11.2 µM [inhibitor, single point]"
8,COc1ccc(NC(=O)c2c(NC(=O)COc3ccccc3)sc3c2CCCCC3)cc1,inactive
9,S=c1nc(NCc2ccc3c(c2)OCO3)c2ccccc2[nH]1,inactive
10,Cc1ccc(CNC(=O)CNC(=S)N(Cc2ccccc2)Cc2ccccc2F)cc1,inactive
11,Cc1cc2cc(CNC(=O)c3cccs3)ccc2[nH]1,"inconclusive: 39.8 µM [inhibitor, single point]"
12,O=C(/C=C/c1ccc([N+](=O)[O-])cc1)NCc1ccco1,"inconclusive: 56.2 µM [inhibitor, partial curve, poor fit]"
13,CCc1ccc(/C=N/NC(=O)c2cc(-c3ccccc3OC)nc3ccccc23)s1,inactive
14,CC(=O)N1CCc2cc(Br)cc(S(=O)(=O)N3CCC(C(=O)Nc4ccc(C(C)C)cc4)CC3)c21,"inconclusive: 35.5 µM [fluorescent, side channel, single point]"
15,COc1ccc(-c2nc3c(c4nnc(SC(C)C(=O)Nc5ccc(C)cc5)n24)COC(C)(C)C3)cc1 (configuration not stated),"inconclusive: 31.6 µM [inhibitor, partial curve, poor fit]"
16,Cc1ccc(-n2c(=S)sc3c(=O)n(-c4ccc(F)cc4)c(SCC(=O)O)nc32)cc1C,inactive
17,Cc1ccc(-c2ccccc2NC(=O)CS(=O)CC(=O)Nc2ccc(C)c(Cl)c2)o1 (configuration not stated),"inconclusive: 35.5 µM [inhibitor, single point]"
18,CCC(=O)N1CCc2cc(S(=O)(=O)NC(Cc3ccccc3)C(=O)Nc3ccccc3C)ccc21 (configuration not stated),"inconclusive: 50.1 µM [quencher, side channel, single point]"
19,O=C(Cn1ncn2c(cc3ccccc32)c1=O)NCc1ccc(F)cc1,inactive
20,CN(C)c1ccc(Nc2ncnc3sc4c(c23)CCCC4)cc1,inactive
21,COc1ccc(NC(C)c2ccccc2)cc1 (configuration not stated),"inconclusive: 50.1 µM [inhibitor, single point]"

# Reference: PubChem BioAssay AID624246 (National Center for Advancing Translational Sciences (NCATS), 2012)
